# Laboratory results: the supplement of paper PMC6411743
# The chains behind the UniProt entries cited, without tags or fusion partners. Where a name states a change or a piece, a line headed by the entry shows the natural chain unless it says otherwise.
# UniProt Q86X10: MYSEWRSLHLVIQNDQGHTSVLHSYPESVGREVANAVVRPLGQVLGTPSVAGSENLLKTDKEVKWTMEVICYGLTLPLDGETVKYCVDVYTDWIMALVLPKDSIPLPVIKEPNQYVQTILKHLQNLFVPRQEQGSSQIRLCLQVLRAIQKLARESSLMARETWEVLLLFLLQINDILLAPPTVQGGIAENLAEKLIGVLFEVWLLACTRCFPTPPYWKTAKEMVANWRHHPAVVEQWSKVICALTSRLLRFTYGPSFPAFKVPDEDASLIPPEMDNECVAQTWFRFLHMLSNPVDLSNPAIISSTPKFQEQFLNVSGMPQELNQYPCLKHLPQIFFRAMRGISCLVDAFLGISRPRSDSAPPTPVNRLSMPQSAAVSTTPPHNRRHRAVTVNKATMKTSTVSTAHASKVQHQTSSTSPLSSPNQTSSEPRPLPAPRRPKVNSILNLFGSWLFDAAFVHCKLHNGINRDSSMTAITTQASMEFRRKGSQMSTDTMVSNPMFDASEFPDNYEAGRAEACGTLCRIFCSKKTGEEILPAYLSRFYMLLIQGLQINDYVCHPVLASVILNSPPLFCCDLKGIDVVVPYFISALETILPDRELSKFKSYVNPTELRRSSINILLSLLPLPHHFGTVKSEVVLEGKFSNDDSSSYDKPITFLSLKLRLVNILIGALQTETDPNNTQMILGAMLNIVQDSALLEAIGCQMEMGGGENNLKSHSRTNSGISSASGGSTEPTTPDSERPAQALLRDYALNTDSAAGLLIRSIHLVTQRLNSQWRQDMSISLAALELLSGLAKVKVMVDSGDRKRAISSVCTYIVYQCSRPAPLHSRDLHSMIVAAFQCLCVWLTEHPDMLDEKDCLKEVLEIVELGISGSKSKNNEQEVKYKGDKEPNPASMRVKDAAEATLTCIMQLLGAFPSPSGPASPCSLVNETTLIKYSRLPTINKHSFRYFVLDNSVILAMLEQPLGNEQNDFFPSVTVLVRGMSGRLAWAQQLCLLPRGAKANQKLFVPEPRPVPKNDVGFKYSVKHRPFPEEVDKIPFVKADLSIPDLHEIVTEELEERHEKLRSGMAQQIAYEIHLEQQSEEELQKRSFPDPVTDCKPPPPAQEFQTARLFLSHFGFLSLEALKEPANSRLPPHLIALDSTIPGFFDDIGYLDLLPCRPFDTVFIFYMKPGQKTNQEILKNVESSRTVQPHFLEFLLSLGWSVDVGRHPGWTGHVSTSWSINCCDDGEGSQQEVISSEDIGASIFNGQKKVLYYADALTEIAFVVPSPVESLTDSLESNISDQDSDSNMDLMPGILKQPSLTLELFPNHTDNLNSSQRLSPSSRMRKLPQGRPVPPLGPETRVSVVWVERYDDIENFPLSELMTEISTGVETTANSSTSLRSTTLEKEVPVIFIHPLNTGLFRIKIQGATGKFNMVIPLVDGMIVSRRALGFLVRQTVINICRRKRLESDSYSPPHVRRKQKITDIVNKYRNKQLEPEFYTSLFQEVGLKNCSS
# UniProt P57075: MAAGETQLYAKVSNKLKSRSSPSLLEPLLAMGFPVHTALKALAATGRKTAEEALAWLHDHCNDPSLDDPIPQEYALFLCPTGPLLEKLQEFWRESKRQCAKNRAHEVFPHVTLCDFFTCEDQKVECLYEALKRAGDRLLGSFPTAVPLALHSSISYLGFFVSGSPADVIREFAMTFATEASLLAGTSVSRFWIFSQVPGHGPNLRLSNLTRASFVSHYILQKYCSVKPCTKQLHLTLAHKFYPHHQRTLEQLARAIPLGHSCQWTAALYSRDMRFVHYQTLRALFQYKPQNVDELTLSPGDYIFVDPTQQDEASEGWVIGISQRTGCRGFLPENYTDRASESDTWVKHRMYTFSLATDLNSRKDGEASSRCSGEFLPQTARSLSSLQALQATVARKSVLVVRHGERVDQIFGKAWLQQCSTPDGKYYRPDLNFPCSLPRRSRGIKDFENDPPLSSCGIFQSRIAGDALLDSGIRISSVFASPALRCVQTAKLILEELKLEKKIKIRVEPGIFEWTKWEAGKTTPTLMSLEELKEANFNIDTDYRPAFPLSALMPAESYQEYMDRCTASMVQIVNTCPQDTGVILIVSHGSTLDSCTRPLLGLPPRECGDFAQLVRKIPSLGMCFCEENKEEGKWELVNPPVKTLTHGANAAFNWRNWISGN
# UniProt Q9H0E9, whole entry: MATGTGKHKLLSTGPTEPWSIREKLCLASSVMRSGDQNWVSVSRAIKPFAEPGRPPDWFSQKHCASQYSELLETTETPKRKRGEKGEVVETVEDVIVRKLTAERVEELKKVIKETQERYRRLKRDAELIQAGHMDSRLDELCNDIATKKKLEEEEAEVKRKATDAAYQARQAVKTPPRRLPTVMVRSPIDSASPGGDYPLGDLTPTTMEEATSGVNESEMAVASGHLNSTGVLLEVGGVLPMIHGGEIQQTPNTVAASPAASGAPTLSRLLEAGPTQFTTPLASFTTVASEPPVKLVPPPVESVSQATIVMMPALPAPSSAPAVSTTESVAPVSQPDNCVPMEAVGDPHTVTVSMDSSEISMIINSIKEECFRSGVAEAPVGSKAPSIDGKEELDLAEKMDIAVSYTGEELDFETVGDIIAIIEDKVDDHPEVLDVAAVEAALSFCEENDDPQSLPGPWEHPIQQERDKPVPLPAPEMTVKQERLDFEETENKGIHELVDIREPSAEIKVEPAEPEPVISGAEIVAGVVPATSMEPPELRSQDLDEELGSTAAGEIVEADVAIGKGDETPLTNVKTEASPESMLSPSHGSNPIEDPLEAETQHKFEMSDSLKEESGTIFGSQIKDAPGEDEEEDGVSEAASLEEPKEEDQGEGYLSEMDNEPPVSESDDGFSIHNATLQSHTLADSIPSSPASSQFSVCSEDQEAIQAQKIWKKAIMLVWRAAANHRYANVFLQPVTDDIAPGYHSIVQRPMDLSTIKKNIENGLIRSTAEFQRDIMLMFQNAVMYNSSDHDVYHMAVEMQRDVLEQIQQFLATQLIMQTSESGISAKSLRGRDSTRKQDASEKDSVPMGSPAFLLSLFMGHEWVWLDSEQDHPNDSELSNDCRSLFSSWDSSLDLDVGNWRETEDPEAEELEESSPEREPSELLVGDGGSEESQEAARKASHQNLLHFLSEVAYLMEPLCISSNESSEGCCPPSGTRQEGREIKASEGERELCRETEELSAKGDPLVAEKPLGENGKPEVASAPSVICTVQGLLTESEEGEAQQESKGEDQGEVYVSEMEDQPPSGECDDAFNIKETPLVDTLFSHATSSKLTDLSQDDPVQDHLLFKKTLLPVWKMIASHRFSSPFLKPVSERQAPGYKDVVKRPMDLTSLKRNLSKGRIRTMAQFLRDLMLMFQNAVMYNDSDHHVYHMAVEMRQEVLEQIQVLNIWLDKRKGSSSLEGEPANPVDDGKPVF
# UniProt Q16774: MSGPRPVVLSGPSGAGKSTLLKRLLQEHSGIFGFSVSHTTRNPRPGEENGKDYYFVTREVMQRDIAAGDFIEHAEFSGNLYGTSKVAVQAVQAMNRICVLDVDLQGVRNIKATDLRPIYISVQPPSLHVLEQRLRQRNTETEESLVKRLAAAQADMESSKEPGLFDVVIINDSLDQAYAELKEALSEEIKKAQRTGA
# UniProt Q03518, whole entry: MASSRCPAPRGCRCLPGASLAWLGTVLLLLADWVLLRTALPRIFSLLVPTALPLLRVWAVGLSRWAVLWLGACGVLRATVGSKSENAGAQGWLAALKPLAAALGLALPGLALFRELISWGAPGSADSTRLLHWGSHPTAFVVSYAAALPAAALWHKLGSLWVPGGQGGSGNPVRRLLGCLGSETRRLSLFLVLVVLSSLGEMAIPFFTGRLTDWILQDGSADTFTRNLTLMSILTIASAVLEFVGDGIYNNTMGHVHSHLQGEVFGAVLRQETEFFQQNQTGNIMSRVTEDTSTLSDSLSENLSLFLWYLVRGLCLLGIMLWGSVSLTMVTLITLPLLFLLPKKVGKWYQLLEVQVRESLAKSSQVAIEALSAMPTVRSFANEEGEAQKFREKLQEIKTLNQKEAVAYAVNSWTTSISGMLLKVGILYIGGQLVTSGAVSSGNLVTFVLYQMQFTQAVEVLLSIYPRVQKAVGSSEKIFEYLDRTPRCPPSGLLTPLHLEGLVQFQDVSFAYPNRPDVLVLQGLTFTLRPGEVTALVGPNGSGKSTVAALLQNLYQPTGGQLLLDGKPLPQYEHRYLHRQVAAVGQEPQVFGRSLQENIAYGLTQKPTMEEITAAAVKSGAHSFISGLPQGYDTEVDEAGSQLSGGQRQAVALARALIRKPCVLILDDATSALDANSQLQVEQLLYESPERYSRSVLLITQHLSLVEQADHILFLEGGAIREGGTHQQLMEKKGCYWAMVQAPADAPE
# UniProt Q9BZK7: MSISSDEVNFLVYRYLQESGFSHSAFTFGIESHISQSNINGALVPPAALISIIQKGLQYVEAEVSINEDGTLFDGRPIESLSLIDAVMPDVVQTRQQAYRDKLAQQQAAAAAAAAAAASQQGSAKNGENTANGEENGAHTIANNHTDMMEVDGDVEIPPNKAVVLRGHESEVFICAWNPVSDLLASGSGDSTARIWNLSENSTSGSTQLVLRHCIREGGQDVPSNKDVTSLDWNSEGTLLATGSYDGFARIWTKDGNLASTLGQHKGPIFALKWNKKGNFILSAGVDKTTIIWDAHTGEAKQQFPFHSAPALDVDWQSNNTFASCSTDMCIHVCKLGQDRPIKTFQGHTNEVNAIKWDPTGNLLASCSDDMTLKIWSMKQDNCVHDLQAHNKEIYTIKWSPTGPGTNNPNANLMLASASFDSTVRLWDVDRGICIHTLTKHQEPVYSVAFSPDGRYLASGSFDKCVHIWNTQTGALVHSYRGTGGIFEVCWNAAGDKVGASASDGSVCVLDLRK
# UniProt Q8TD31: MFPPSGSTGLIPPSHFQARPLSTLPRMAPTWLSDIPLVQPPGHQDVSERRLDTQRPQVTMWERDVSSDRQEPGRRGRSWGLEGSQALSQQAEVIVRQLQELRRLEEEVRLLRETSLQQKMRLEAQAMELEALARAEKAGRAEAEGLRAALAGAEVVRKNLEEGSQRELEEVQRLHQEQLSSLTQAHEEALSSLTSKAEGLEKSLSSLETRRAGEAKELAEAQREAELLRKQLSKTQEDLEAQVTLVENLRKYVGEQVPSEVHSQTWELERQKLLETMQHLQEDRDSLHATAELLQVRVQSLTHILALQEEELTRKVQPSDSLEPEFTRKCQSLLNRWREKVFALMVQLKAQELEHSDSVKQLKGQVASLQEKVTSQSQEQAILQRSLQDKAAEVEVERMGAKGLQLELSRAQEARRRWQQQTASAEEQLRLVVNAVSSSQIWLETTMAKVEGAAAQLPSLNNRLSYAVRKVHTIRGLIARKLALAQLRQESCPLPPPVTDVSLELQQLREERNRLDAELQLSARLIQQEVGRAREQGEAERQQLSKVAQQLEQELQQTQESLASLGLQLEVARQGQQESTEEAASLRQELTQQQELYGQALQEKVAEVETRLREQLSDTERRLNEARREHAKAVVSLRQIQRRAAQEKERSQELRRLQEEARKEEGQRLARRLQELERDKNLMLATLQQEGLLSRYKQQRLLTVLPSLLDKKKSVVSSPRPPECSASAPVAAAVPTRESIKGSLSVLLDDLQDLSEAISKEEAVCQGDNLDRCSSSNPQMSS
# UniProt Q8NBW4: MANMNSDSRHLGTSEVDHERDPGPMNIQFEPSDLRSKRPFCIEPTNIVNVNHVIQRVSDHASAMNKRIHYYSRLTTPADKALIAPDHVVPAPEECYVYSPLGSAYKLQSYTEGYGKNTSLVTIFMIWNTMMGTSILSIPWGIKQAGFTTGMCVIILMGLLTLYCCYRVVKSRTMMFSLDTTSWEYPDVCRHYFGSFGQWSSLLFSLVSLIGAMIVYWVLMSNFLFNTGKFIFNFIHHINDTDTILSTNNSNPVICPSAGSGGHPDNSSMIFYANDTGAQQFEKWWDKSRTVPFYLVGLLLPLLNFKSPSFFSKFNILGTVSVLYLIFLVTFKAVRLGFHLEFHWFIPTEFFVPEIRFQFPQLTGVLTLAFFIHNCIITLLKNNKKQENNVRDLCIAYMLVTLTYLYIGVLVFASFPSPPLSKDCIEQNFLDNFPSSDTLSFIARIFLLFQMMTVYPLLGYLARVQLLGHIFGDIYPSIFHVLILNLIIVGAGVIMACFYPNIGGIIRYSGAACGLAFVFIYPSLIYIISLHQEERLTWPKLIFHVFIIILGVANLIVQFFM
# UniProt O76075: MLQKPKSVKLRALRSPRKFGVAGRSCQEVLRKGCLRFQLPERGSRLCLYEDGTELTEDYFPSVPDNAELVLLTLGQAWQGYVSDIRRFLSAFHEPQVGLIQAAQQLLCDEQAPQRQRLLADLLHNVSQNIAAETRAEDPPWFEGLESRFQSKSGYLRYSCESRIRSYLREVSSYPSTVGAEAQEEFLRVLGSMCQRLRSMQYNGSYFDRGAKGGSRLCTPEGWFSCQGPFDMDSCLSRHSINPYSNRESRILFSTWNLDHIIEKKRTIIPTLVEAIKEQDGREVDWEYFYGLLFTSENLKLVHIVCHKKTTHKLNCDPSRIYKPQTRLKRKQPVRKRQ
# ± gives the standard deviation of the averaged measurements. This is a selection; strong and weak results do not stand in their true shares.
# Compound: Nc1ncnc2c1ncn2[C@@H]1O[C@H](COP(=O)(O)OP(=O)(O)OP(=O)(O)O)[C@@H](O)[C@H]1O [adenosine triphosphate]
# Test: NP40-soluble protein abundance relative to vehicle (solubility fold change) (ratio); higher = more soluble protein in presence of ATP
# Summary of the method: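 Data come from three independent experiments in which Dounce-homogenised Jurkat crude lysate was treated at eight concentrations from 0.1 to 10 mM. Treatment ran 10 min at room temperature and then 3 min at 37 °C, after which 0.8% NP40 and benzonase were added for 60 min at 4 °C before ultracentrifugation. The supernatant underwent TMT labelling and LC-MS/MS, and vsn-normalised intensities were expressed as fold change against the detergent-processed vehicle in each replicate.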
Target,NP40-soluble protein abundance (concentration: 1mM),NP40-soluble protein abundance (concentration: 2mM),NP40-soluble protein abundance (concentration: 4mM),NP40-soluble protein abundance (concentration: 6mM),NP40-soluble protein abundance (concentration: 8mM),NP40-soluble protein abundance (concentration: 10mM)
D3YTB5 and related entries (UniProt P51617),1.12 ± 0.064,1.15 ± 0.092,1.15 ± 0.075,1.12 ± 0.044,1.12 ± 0.035,1.16 ± 0.067
A0A0J9YXJ0|E9PC62 and related entries (UniProt O95319),0.973 ± 0.055,0.981 ± 0.011,0.9516 ± 0.006,0.976 ± 0.031,0.931 ± 0.022,0.935 ± 0.02
B4DIG0 and related entries (UniProt P30305),0.949 ± 0.16,1.02 ± 0.049,1.06 ± 0.032,1.07 ± 0.015,1 ± 0.068,0.97 ± 0.17
A2A2F0 and related entries (UniProt Q86X10),1 ± 0.067,1.02 ± 0.033,1.04 ± 0.027,0.997 ± 0.034,1.01 ± 0.042,1.01 ± 0.02
UniProt A0MZ66,1 ± 0.023,0.994 ± 0.024,0.9772 ± 0.0021,1.05 ± 0.034,0.974 ± 0.049,0.98 ± 0.049
A0A0U1RRC9|P57075 and related entries (UniProt P57075),0.973 ± 0.021,0.9511 ± 0.0072,0.9618 ± 0.0088,0.938 ± 0.029,0.977 ± 0.087,1.04 ± 0.06
B5MCW3 and related entries (UniProt Q9H0E9),0.972 ± 0.06,0.964 ± 0.046,0.957 ± 0.083,1.03 ± 0.1,0.976 ± 0.059,0.988 ± 0.044
B3KUS5 and related entries (UniProt Q70CQ3),1 ± 0.035,1.05 ± 0.12,1.05 ± 0.12,0.994 ± 0.12,1.22 ± 0.027,1.14 ± 0.1
A0A0G2JHC2|Q6NYC8 (UniProt Q6NYC8),0.942 ± 0.058,0.94 ± 0.032,0.979 ± 0.022,1.02 ± 0.037,0.993 ± 0.015,1 ± 0.019
B1ANH0 and related entries (UniProt Q16774),0.965 ± 0.034,1 ± 0.02,0.959 ± 0.018,0.974 ± 0.022,0.964 ± 0.028,0.944 ± 0.03
CCDC88B (UniProt A6NC98),0.949 ± 0.039,0.968 ± 0.066,1 ± 0.071,0.96 ± 0.06,0.923 ± 0.082,0.918 ± 0.073
B7WPE2 and related entries (UniProt Q32P44),1.114 ± 0.0064,1.1 ± 0.016,1.1 ± 0.033,1.08 ± 0.054,1.11 ± 0.043,1.1 ± 0.023
A0A140T9T7|Q03518 (UniProt Q03518),1.01 ± 0.034,0.977 ± 0.036,0.971 ± 0.023,1.01 ± 0.067,0.996 ± 0.041,0.987 ± 0.028
C9JLJ1 and related entries (UniProt Q9BZK7),1 ± 0.085,1.02 ± 0.051,0.976 ± 0.058,0.959 ± 0.013,0.99 ± 0.048,1.04 ± 0.042
A8K727 and related entries (UniProt Q9HB19),1.09 ± 0.022,1.11 ± 0.013,1.11 ± 0.013,1.124 ± 0.0059,1.2 ± 0.021,1.21 ± 0.027
B0QZ65 and related entries (UniProt Q14C86),0.97 ± 0.01,0.98 ± 0.03,0.9584 ± 0.0054,0.924 ± 0.036,0.969 ± 0.025,0.965 ± 0.029
A0A0G2JJ47|A0A0G2JP87|A2ABH1 and related entries (UniProt Q8TD31),1.01 ± 0.071,1.06 ± 0.064,1.06 ± 0.072,1.1 ± 0.07,0.959 ± 0.14,1.08 ± 0.07
C9JLT7 and related entries (UniProt Q8TBF5),1.22 ± 0.37,0.919 ± 0.011,0.95 ± 0.021,1.02 ± 0.1,0.806 ± 0.028,0.902 ± 0.0092
D6RA37 and related entries (UniProt Q13454),1.02 ± 0.088,1 ± 0.051,0.97 ± 0.056,0.938 ± 0.07,0.998 ± 0.04,1.03 ± 0.029
B5MC15 and related entries (UniProt Q13191),1.06 ± 0.073,1.03 ± 0.033,1.04 ± 0.12,1 ± 0.081,0.998 ± 0.085,1.03 ± 0.034
C9J0I9 and related entries (UniProt Q86WB0),0.995 ± 0.024,1 ± 0.019,0.98 ± 0.035,0.963 ± 0.041,0.961 ± 0.041,0.964 ± 0.023
C9JF58 and related entries (UniProt Q8WVF1),0.932 ± 0.028,0.976 ± 0.041,0.977 ± 0.019,1.01 ± 0.11,0.989 ± 0.062,0.978 ± 0.04
D4Q8H0 and related entries (UniProt Q9NYL2+D4Q8H0),0.978 ± 0.022,1.03 ± 0.046,1.03 ± 0.014,0.929 ± 0.021,0.995 ± 0.076,1.09 ± 0.028
D6RDN9 and related entries (UniProt Q15119),1.18 ± 0.12,1.11 ± 0.034,1.18 ± 0.16,1.12 ± 0.094,1.17 ± 0.15,1.2 ± 0.12
B4DEM9 and related entries (UniProt Q9Y2S7),1.06 ± 0.14,1.04 ± 0.13,1.08 ± 0.13,1.01 ± 0.18,1.06 ± 0.13,1.06 ± 0.11
A4D1U4 and related entries (UniProt C9J7X6+A4D1U4),1.11 ± 0.027,1.046 ± 0.0031,1.15 ± 0.13,1.06 ± 0.095,1.11 ± 0.061,1.07 ± 0.1
A0A140T9D0|Q8NBI6 and related entries (UniProt Q8NBI6),1.01 ± 0.17,1.03 ± 0.093,1 ± 0.084,0.973 ± 0.19,0.899 ± 0.19,0.953 ± 0.14
D6R9Q7 and related entries (UniProt Q8NBW4),0.926 ± 0.04,0.945 ± 0.022,1.01 ± 0.032,1.03 ± 0.051,0.899 ± 0.057,0.915 ± 0.052
B4DZS0 and related entries (UniProt O76075),1.05 ± 0.047,1.02 ± 0.044,1.01 ± 0.047,0.999 ± 0.085,1.01 ± 0.053,1.01 ± 0.036
D3YTK1 and related entries (UniProt Q9C0K0),1.1 ± 0.058,1.1 ± 0.074,1.13 ± 0.08,1.15 ± 0.17,1.16 ± 0.098,1.2 ± 0.11

# Single records, as listed above. Order of values: NP40-soluble protein abundance (concentration: 1mM)	NP40-soluble protein abundance (concentration: 2mM)	NP40-soluble protein abundance (concentration: 4mM)	NP40-soluble protein abundance (concentration: 6mM)	NP40-soluble protein abundance (concentration: 8mM)	NP40-soluble protein abundance (concentration: 10mM)
# B4DEM9 and related entries (UniProt Q9Y2S7) is listed as 1.06 ± 0.14	1.04 ± 0.13	1.08 ± 0.13	1.01 ± 0.18	1.06 ± 0.13	1.06 ± 0.11
# A0A0U1RRC9|P57075 and related entries (UniProt P57075) is listed as 0.973 ± 0.021	0.9511 ± 0.0072	0.9618 ± 0.0088	0.938 ± 0.029	0.977 ± 0.087	1.04 ± 0.06
